Experiment [1] has as its target T1, Myc-CREB3-CF (UniProt O43889).
T1 sequence: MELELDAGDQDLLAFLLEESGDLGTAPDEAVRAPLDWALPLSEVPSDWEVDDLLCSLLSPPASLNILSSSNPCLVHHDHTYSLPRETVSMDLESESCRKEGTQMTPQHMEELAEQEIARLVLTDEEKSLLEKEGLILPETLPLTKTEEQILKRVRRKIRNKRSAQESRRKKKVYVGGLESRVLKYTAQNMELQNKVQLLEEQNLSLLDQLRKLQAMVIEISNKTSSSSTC
Put plainly: co-IP; IP with Myc-CREB3-CF and its serial deletion mutants; lysates (150 μg) with antibody at 4 °C for 4 h or overnight, protein G Sepharose beads; washed with 20 mM Tris pH 8.0, 100 mM NaCl, 1 mM EDTA, 0.5% NP-40; Western blot. In general terms: In western blotting, separated proteins are transferred to a membrane and probed.

Sequences of proteins named here, by UniProt entry; tags and fusion partners are left off. Residues count along the entry.
UniProt P20700: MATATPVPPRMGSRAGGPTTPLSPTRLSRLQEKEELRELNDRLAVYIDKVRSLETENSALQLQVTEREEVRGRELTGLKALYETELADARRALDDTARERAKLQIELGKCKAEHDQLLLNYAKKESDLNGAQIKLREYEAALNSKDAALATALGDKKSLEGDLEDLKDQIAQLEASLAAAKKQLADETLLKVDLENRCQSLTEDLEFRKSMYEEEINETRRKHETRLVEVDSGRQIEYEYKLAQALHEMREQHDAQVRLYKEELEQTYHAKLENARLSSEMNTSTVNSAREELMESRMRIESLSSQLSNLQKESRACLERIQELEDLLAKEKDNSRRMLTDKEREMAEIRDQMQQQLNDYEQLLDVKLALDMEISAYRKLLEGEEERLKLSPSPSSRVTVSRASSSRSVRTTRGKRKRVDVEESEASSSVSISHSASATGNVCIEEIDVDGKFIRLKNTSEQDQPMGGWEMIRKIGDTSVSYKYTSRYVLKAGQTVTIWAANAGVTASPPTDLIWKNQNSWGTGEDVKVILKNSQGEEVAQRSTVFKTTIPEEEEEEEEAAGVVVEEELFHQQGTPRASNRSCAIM
UniProt P02545, residues 1-646: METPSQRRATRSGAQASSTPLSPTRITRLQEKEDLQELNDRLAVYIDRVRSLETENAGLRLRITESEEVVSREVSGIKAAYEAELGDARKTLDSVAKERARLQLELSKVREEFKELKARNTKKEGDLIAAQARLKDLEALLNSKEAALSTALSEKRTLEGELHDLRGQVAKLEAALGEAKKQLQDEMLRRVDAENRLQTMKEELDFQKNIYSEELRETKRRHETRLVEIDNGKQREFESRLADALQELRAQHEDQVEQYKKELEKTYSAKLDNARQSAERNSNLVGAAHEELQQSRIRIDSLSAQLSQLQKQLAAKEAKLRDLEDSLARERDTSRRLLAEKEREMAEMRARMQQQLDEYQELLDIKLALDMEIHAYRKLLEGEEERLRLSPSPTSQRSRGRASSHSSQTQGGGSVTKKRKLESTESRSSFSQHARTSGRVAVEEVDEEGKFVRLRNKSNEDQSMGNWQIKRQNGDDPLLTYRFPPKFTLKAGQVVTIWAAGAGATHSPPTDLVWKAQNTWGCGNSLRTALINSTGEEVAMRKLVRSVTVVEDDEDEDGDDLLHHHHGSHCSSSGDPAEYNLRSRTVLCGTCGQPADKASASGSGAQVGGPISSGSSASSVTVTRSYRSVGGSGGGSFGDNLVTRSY

For experiment [2], the target named is T2, His-CREB3-CF fusion protein (cleaved form of cyclic AMP-responsive element-binding protein 3) (UniProt O43889).
T2 sequence: T1 sequence
Put plainly: pull-down; His-CREB3-CF on HisPur Ni-NTA resin, combined with HEK293T lysates with transiently expressed mCherry-Lamin A or mCherry-Lamin B1, overnight at 4 °C; washed with 100 mM NaCl, 20 mM Tris pH 8.0, 1 mM EDTA, 0.5% NP-40; Western blot; only the target purified.

Results are given in words; binding and its absence hold for the method and conditions named. In cells and extracts the contact can be indirect. Some results given as binding are weak or reduced against the parent protein; the word gives no strength. Tags and fused reporters may be left off the sequences shown.

As to “Lamin B1 (as in the IP of Fig. 3c) (from UniProt P20700 1-586)”, in experiment [1], the binding entry is on record as “binds”.

On to “mCherry-Lamin A (from UniProt P02545 1-646)”, for which the binding entry in experiment [2] is on record as “binds”.

With “mCherry-Lamin B1 (from UniProt P20700 1-586)”, the binding result in experiment [2] is reported as “binds”.

Source of the values: PMC10985101.
